PubChem BioAssay AID1508597 – Cure First, 2020

Purpose: 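Genes whose silencing sensitises or protects ovarian cancer cells against rucaparib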 (primary screen)
Cells: human ovarian carcinoma lines grown from tumours: OCI-P5x (papillary serous) and OCI-C5x (clear cell)
Knock-down reagent: siRNA pool against human genes, 1.25 pmol siRNA per well
Time to read-out: 72 h or 96 h, depending on the cell culture
Challenge: rucaparib 20 µM (about IC30) or vehicle, present until read-out
Read-out: 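Luminescent ATP-based viability assay read 72 or 96 h after transfection, depending on culture, given as normalised percent viability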
Direction: viability, normalised: higher = more viable cells remaining
Call rule: 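Active when normalised viability falls below 80 percent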
Calls: active = viability under 80%; inactive = viability 80% or more
The deposit covers about 2,100 reagents; below is a part drawn at random. 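Calls flag viability under 80% in either arm, not effects specific to rucaparib; the reference for percent is not stated.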 Not given: the 100% reference.

no.	gene	rucaparib or vehicle	cell line	technical replicate	viability, normalised (%)	Call
1	LIMK1	Rucaparib	OCI-C5x (clear cell)	1	40.3	active
2	LIMK1	Rucaparib	OCI-C5x (clear cell)	2	47.4	active
3	LIMK1	Rucaparib	OCI-C5x (clear cell)	3	55.6	active
4	LIMK1	Rucaparib	OCI-P5x (serous)	1	82.3	inactive
5	LIMK1	Rucaparib	OCI-P5x (serous)	2	93.8	inactive
6	LIMK1	Rucaparib	OCI-P5x (serous)	3	77.3	active
7	LIMK1	Vehicle	OCI-C5x (clear cell)	1	65	active
8	LIMK1	Vehicle	OCI-C5x (clear cell)	2	51.1	active
9	LIMK1	Vehicle	OCI-C5x (clear cell)	3	52.8	active
10	LIMK1	Vehicle	OCI-P5x (serous)	1	98.4	inactive
11	LIMK1	Vehicle	OCI-P5x (serous)	2	72	active
12	LIMK1	Vehicle	OCI-P5x (serous)	3	88.8	inactive
13	INSRR	Rucaparib	OCI-C5x (clear cell)	1	48.9	active
14	INSRR	Rucaparib	OCI-C5x (clear cell)	2	43.9	active
15	INSRR	Rucaparib	OCI-C5x (clear cell)	3	42.7	active
16	INSRR	Rucaparib	OCI-P5x (serous)	1	70.3	active
17	INSRR	Rucaparib	OCI-P5x (serous)	2	52.6	active
18	INSRR	Rucaparib	OCI-P5x (serous)	3	64.6	active
19	INSRR	Vehicle	OCI-C5x (clear cell)	1	56.8	active
20	INSRR	Vehicle	OCI-C5x (clear cell)	2	42.4	active
21	INSRR	Vehicle	OCI-C5x (clear cell)	3	53.5	active
22	INSRR	Vehicle	OCI-P5x (serous)	1	61.8	active
23	INSRR	Vehicle	OCI-P5x (serous)	2	56.3	active
24	INSRR	Vehicle	OCI-P5x (serous)	3	60.6	active

No new results follow: entries from further up.
no.	gene	rucaparib or vehicle	cell line	technical replicate	viability, normalised (%)	Call
16	INSRR	Rucaparib	OCI-P5x (serous)	1	70.3	active
17	INSRR	Rucaparib	OCI-P5x (serous)	2	52.6	active
18	INSRR	Rucaparib	OCI-P5x (serous)	3	64.6	active
19	INSRR	Vehicle	OCI-C5x (clear cell)	1	56.8	active
20	INSRR	Vehicle	OCI-C5x (clear cell)	2	42.4	active
21	INSRR	Vehicle	OCI-C5x (clear cell)	3	53.5	active
22	INSRR	Vehicle	OCI-P5x (serous)	1	61.8	active

The results go on:
no.	gene	rucaparib or vehicle	cell line	technical replicate	viability, normalised (%)	Call
25	VAX2	Rucaparib	OCI-C5x (clear cell)	1	70.3	active
26	VAX2	Rucaparib	OCI-C5x (clear cell)	2	61.5	active
27	VAX2	Rucaparib	OCI-C5x (clear cell)	3	52.1	active
28	VAX2	Rucaparib	OCI-P5x (serous)	1	87.6	inactive
29	VAX2	Rucaparib	OCI-P5x (serous)	2	70.9	active
30	VAX2	Rucaparib	OCI-P5x (serous)	3	77.1	active
31	VAX2	Vehicle	OCI-C5x (clear cell)	1	40.6	active
32	VAX2	Vehicle	OCI-C5x (clear cell)	2	84.6	inactive
33	VAX2	Vehicle	OCI-C5x (clear cell)	3	90.6	inactive
34	VAX2	Vehicle	OCI-P5x (serous)	1	82.1	inactive
35	VAX2	Vehicle	OCI-P5x (serous)	2	101	inactive
36	VAX2	Vehicle	OCI-P5x (serous)	3	75.3	active
37	INO80C	Rucaparib	OCI-C5x (clear cell)	1	55.6	active
38	INO80C	Rucaparib	OCI-C5x (clear cell)	2	50.9	active
39	INO80C	Rucaparib	OCI-C5x (clear cell)	3	46.3	active
40	INO80C	Rucaparib	OCI-P5x (serous)	1	56	active
41	INO80C	Rucaparib	OCI-P5x (serous)	2	54.6	active
42	INO80C	Rucaparib	OCI-P5x (serous)	3	66.3	active
43	INO80C	Vehicle	OCI-C5x (clear cell)	1	72.9	active
44	INO80C	Vehicle	OCI-C5x (clear cell)	2	71.6	active
45	INO80C	Vehicle	OCI-C5x (clear cell)	3	72.1	active
46	INO80C	Vehicle	OCI-P5x (serous)	1	68.8	active
47	INO80C	Vehicle	OCI-P5x (serous)	2	83.6	inactive
48	INO80C	Vehicle	OCI-P5x (serous)	3	78.6	active
